# Laboratory results from PMC12871198.
# These are yes or no findings as the source states them, for the method shown. In cells and extracts the contact can be indirect. Binding calls can cover weak binding; strength is not graded here. Where a sequence is shown, tags or fusion partners need not be part of it.
# T1: cdhr1a fused to a C-terminal FLAG tag (zebrafish) (UniProt Q6B3P0)
# T1 sequence: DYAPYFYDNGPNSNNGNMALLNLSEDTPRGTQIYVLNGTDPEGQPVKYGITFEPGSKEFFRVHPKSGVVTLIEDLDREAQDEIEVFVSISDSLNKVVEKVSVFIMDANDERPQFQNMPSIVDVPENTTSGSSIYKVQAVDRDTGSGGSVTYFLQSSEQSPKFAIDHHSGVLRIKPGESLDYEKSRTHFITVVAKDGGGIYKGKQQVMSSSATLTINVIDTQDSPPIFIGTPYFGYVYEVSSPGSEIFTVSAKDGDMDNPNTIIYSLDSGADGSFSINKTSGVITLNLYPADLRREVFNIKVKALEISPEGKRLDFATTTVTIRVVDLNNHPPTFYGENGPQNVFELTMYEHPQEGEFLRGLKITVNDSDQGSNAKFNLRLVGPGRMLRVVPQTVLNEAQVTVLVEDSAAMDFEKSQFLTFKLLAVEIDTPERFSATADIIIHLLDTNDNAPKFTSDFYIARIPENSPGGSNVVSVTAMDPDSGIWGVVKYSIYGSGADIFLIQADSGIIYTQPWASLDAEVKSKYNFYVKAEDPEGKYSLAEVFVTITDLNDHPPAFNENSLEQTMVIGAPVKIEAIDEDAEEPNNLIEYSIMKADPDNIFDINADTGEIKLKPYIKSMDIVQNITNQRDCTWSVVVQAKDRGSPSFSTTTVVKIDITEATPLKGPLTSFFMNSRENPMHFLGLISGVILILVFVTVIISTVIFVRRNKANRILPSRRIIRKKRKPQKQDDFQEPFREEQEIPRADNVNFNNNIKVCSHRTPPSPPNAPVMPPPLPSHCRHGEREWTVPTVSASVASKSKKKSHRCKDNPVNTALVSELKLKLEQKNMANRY
# Columns and labels:
# [1] = target: T1, cdhr1a fused to a C-terminal FLAG tag (zebrafish); assay: co-IP; HEK293 cells co-transfected with cdhr1a-FLAG and pcdh15b-MYC, 24 h; membrane protein extract; one sample on anti-FLAG magnetic beads, another on anti-MYC magnetic beads; blots for FLAG and MYC
# [2] = target: pcdh15b fused to a C-terminal MYC tag (zebrafish); assay: as above
binding [1],binding [2],Molecule
binds,–,pcdh15b fused to a C-terminal MYC tag (zebrafish)
–,binds,"cdhr1a fused to a C-terminal FLAG tag (protein, UniProt Q6B3P0 26-857) DYAPYFYDNGPNSNNGNMALLNLSEDTPRGTQIYVLNGTDPEGQPVKYGITFEPGSKEFFRVHPKSGVVTLIEDLDREAQDEIEVFVSISDSLNKVVEKVSVFIMDANDERPQFQNMPSIVDVPENTTSGSSIYKVQAVDRDTGSGGSVTYFLQSSEQSPKFAIDHHSGVLRIKPGESLDYEKSRTHFITVVAKDGGGIYKGKQQVMSSSATLTINVIDTQDSPPIFIGTPYFGYVYEVSSPGSEIFTVSAKDGDMDNPNTIIYSLDSGADGSFSINKTSGVITLNLYPADLRREVFNIKVKALEISPEGKRLDFATTTVTIRVVDLNNHPPTFYGENGPQNVFELTMYEHPQEGEFLRGLKITVNDSDQGSNAKFNLRLVGPGRMLRVVPQTVLNEAQVTVLVEDSAAMDFEKSQFLTFKLLAVEIDTPERFSATADIIIHLLDTNDNAPKFTSDFYIARIPENSPGGSNVVSVTAMDPDSGIWGVVKYSIYGSGADIFLIQADSGIIYTQPWASLDAEVKSKYNFYVKAEDPEGKYSLAEVFVTITDLNDHPPAFNENSLEQTMVIGAPVKIEAIDEDAEEPNNLIEYSIMKADPDNIFDINADTGEIKLKPYIKSMDIVQNITNQRDCTWSVVVQAKDRGSPSFSTTTVVKIDITEATPLKGPLTSFFMNSRENPMHFLGLISGVILILVFVTVIISTVIFVRRNKANRILPSRRIIRKKRKPQKQDDFQEPFREEQEIPRADNVNFNNNIKVCSHRTPPSPPNAPVMPPPLPSHCRHGEREWTVPTVSASVASKSKKKSHRCKDNPVNTALVSELKLKLEQKNMANRY"
